This assay has as its target Plasmodium falciparum Hsp90 (expressed in yeast GR reporter strain). As to the kind of experiment: decrease of GR reporter signal in PfHsp90 yeast, dose response, S. cerevisiae, beta-gal luminescence, dry powder samples (AID 602160). The conditions noted are these: at 26 µM (top of the series).

The other results are listed elsewhere or left out. Entries without a call are filed as inconclusive in the source.

With `CCOc1cc(S(=O)(=O)NC2CCCCCC2)ccc1F`, the activity change, negative = inhibition is -41%.

Source of the values: PubChem BioAssay AID602160 (Broad Institute, 2011).
